Test results from PubChem BioAssay AID493014 (National Center for Advancing Translational Sciences (NCATS), 2011).
Some of the results follow. Further columns of the screen follow, without active or inactive calls. Most of these compounds were active or inconclusive in the main read-out, so they are no random draw. Potencies come from curve fits of mixed quality, noted in brackets.

Assay: qHTS Assay to Find Inhibitors of Chronic Active B-Cell Receptor Signaling
Details: ABC-DLBCL IkBa-CBG/CBR reporter, luminescence ratio (green luciferase fused to IkBa over red control in TMD8 lymphoma cells), 4 h
Outline: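 TMD8 human ABC-DLBCL cells with doxycycline-inducible IκBα–green luciferase fusion and unfused red luciferase, in 0.5% FBS medium; compounds up to 46 uM, 4 h at 37C. Green/red luminescence ratio, filter-overlap corrected, fitted to concentration-response curves.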

[1] = measured here: CBR red luminescence, cell number
[2] = measured here: IkBa-CBG green luminescence

## Cc1ccc(-n2c(SCC(=O)NCc3cccs3)nnc2-c2ccoc2C)cc1
[1]
  AC50: 20 µM [falling, single point]

## CCc1ccc(OCCCC(=O)Nc2cccc(C(=O)O)c2)cc1
[1]
  AC50: 20 µM [rising, single point]

## CCOC(=O)N1CCN(C(=O)c2cc(COc3c(F)cccc3F)on2)CC1
[1]
  AC50: 8.91 µM [rising, partial curve, poor fit]

## CCN(CC)C(=O)CSc1nnc(SC(C)C(=O)NC2CC2)s1 (stereo not drawn)
[1]
  AC50: 0.164 µM [rising, full curve, poor fit]

## CC(C)C(=O)Nc1ccc(NC(=O)c2ccco2)cn1
[1]
  AC50: 1 µM [rising, full curve]

## Cc1nc(Nc2ccc(C(=O)O)cc2)sc1-c1ccccc1
[1]
  AC50: 1 µM [falling, full curve, poor fit]

## CCOc1ccc(CCNC(=O)c2cc(=O)[nH]c3ccc(S(=O)(=O)N4CCCCC4)cc23)cc1OCC
[1]
  AC50: 0.891 µM [rising, full curve, poor fit]

## Cc1cc(Sc2nnc(/N=C/N(C)C)s2)c2ccccc2n1
[1]
  AC50: 7.08 µM [falling, full curve, poor fit]

## O=C(Cc1c(F)cccc1Cl)NNC(=O)c1ccco1
[1]
  AC50: 29.1 µM [rising, single point]

## C=CCn1c(SCC(=O)OCc2ccccc2)nc2c1c(=O)n(C)c(=O)n2C
[1]
  AC50: 0.731 µM [falling, full curve]

## CCCn1ccc2c(OCC(=O)Nc3ccc(NC(C)=O)cc3)cccc2c1=O
[1]
  AC50: 0.00461 µM [rising, full curve, poor fit]

## N=c1n(CCN2CCCCC2)c2ccccc2n1CC(O)c1ccco1 (stereo not drawn)
[1]
  AC50: 0.708 µM [falling, full curve, poor fit]

## CCCCN(CC)Cc1c(O)ccc2c3c(c(=O)oc12)CCC3
[1]
  AC50: 12.6 µM [rising, partial curve, poor fit]

## COc1ccc(C(C)(C)C)cc1NC(=O)COC(=O)c1nc2nccc(C)n2n1
[1]
  AC50: 0.92 µM [rising, full curve, poor fit]

## COc1ccc(CCNc2ncnc3[nH]ncc23)cc1OC
[1]
  AC50: 5.8 µM [falling, full curve, poor fit]

## CCc1nc2ccc(C(=O)NCc3ccco3)cc2nc1CC
[1]
  AC50: 14.6 µM [falling, partial curve, poor fit]

## Clc1ccc(N=c2ssnc2Cl)nc1
[1]
  AC50: 11.2 µM [rising, partial curve]

## CC(=O)COc1cccc2ccc(/C=C/c3ccc(Br)s3)nc12
[1]
  AC50: 0.794 µM [falling, full curve]
[2]
  AC50: 10 µM [falling, partial curve, poor fit]

## Cc1ccc(C(=O)CNc2cccc(Cl)c2)cc1
[1]
  AC50: 0.146 µM [rising, full curve]

## CCN(CC)C(=O)C(=O)Nc1cccc(Br)c1
[1]
  AC50: 35.5 µM [falling, single point]

## CCN(CC)C(=O)Oc1ccc2ccccc2c1Br
[1]
  AC50: 17.8 µM [rising, partial curve, poor fit]

## O=C(c1ccc2oc(CCCc3ccccc3)nc2c1)N1CCCC1
[1]
  AC50: 22.4 µM [falling, partial curve, poor fit]

## CC(C)(C)NC(=O)NC(=O)CSc1ccc(S(=O)(=O)N2CCCCC2)cn1
[1]
  AC50: 4.11 µM [falling, partial curve, poor fit]

## O=C(CSc1nnc(CNc2ccccc2)o1)c1ccc2c(c1)OCCO2
[1]
  AC50: 20.6 µM [falling, single point]
[2]
  AC50: 23.1 µM [rising, single point]

## COc1ccc(/C=N/n2cnc3c([nH]c4ccccc43)c2=O)cc1COc1ccccn1
[1]
  AC50: 3.16 µM [rising, single point]

## CCCCc1c(C)[nH]c(C(=O)OCC)c1C
[1]
  AC50: 12.6 µM [rising, partial curve]
[2]
  AC50: 12.6 µM [falling, single point]

## Oc1c(C(c2ccccc2)N2CCC(O)CC2)sc2nc(-c3ccco3)nn12 (stereo not drawn)
[1]
  AC50: 12.6 µM [rising, partial curve, poor fit]

## Nc1ccccc1Nc1cc(-c2ccccc2)[nH]n1
[1]
  AC50: 3.55 µM [falling, full curve, poor fit]

## CCOC(=O)C(Sc1cc(-c2ccccc2)nc2ncnn12)C(C)=O (stereo not drawn)
[1]
  AC50: 3.98 µM [rising, full curve, poor fit]

## CC1CN(C2CCN(C(=O)c3cccc(Cl)c3)CC2)CC(C)O1 (stereo not drawn)
[1]
  AC50: 0.631 µM [falling, full curve, poor fit]

## Cc1nc(CS(=O)(=O)c2ccc(Cl)cc2)sc1C(=O)O
[1]
  AC50: 0.447 µM [falling, full curve, poor fit]

## Cc1ccc(NNC(=O)C(O)(c2cccc(C(F)(F)F)c2)c2cccc(C(F)(F)F)c2)cc1
[1]
  AC50: 23.1 µM [falling, partial curve]

## COC(=O)c1ccc(NC(=O)c2cccc(N3C(=O)CCC3=O)c2)cc1
[1]
  AC50: 8.2 µM [falling, partial curve]

## O[C@@H](c1cc(C(F)(F)F)nc2c(C(F)(F)F)cccc12)[C@H]1CCCCN1
[1]
  AC50: 2.59 µM [falling, partial curve]

## CN(C)C(=O)c1ccc(Nc2ncnc3sc4c(c23)CCCCC4)cc1
[1]
  AC50: 1.58 µM [rising, partial curve, poor fit]

## N#C/C(=C/c1ccc2c(c1)OCO2)C(=O)NCCc1c[nH]c2ccccc12
[1]
  AC50: 25.9 µM [falling, partial curve, poor fit]

## COC(=O)C(NC(=O)c1ccccc1)(Nc1cc(C)cc(C)n1)C(F)(F)F (stereo not drawn)
[1]
  AC50: 11.6 µM [rising, partial curve, poor fit]

## CN1CCN(CCCNC(=O)c2ccc(/C=C3\Sc4ccccc4N(Cc4ccc(F)cc4)C3=O)cc2)CC1
[1]
  AC50: 35.5 µM [falling, single point]

## COc1cc(OC)cc(C(=O)Nc2ccc(-n3cnnn3)c(C)c2)c1
[1]
  AC50: 7.08 µM [falling, partial curve, poor fit]

## S=C(NN=C1C2CC3CC(C2)CC1C3)Nc1ccccc1
[1]
  AC50: 8.2 µM [falling, single point]
